{
  "sequences": {"note": "Chains of the proteins cited; added tags and fusions are not shown. Lines headed by an entry give the natural chain unless they say otherwise; changes in a name come on top.", "UniProt Q00613": "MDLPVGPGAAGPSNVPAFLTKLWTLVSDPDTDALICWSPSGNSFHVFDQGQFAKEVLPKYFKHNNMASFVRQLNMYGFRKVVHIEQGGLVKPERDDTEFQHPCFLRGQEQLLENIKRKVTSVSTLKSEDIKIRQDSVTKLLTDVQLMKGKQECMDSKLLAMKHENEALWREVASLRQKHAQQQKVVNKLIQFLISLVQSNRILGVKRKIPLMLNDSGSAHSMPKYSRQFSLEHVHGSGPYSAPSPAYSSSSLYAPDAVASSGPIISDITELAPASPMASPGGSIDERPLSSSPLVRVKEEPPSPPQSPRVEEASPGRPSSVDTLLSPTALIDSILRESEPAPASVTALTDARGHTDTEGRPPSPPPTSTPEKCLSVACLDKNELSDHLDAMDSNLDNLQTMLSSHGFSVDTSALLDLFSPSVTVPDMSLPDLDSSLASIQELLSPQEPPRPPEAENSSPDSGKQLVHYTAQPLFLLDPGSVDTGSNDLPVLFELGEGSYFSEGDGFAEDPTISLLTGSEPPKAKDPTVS"},
  "source": "paper PMC4558571",
  "note": "No constants are given. Whether binding was seen depends on the method and setting. In cells and extracts the contact can be indirect. Some binding calls cover weakened binding; strength is not graded here.",
  "data": [
    {"target": "T1, SSBP1, endogenous in HEK293 cells (human (endogenous in HEK293)) (UniProt Q04837)", "T1 sequence": "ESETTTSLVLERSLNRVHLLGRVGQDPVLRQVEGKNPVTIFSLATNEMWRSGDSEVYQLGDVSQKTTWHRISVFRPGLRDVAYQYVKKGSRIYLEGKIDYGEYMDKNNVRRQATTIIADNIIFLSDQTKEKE", "test": "co-IP; HEK293 cells transfected with Flag-tagged hHSF1 or a point mutant, NP-40 lysis buffer; precipitated with rabbit antiserum for SSBP1 at 4 °C for 1 h, protein A- or protein G-Sepharose; blotted with Flag (M2) or SSBP1 antibody", "values": [
      {"substance": "Flag-tagged hHSF1-K188G (from UniProt Q00613 1-529)", "binding": "no binding"},
      {"substance": "Flag-tagged hHSF1-K188A (from UniProt Q00613 1-529)", "binding": "no binding"},
      {"substance": "Flag-tagged hHSF1 (wild type) (from UniProt Q00613 1-529)", "binding": "binds"},
      {"substance": "Flag-tagged hHSF1-K188R (from UniProt Q00613 1-529)", "binding": "binds"}
    ]}
  ]
}
